For part of these data: Negatives hold for the conditions tested. Tags and fusion partners may be left off the protein sequences shown. For part of these data: A weaker result is weaker than the reference pair of the same experiment. For part of these data: The exact form of at least one protein or probe is not confirmed. For part of these data: At least one verdict was read from the data and is not stated in words by the source.
Experiments:
[1] = target: T1, SDN1 wild type (Arabidopsis thaliana) (UniProt A3KPE8); test: EMSA; conditions: no Mg2+, EMSA: 50 mM Tris pH 8.0, 100 mM NaCl, 1 mM DTT, 2 nM RNA, on ice 30 min, 8% native PAGE in 0.5x TBE, recombinant protein, residues 2-409, protein details: His-SUMO tag removed
T1 sequence (looked up): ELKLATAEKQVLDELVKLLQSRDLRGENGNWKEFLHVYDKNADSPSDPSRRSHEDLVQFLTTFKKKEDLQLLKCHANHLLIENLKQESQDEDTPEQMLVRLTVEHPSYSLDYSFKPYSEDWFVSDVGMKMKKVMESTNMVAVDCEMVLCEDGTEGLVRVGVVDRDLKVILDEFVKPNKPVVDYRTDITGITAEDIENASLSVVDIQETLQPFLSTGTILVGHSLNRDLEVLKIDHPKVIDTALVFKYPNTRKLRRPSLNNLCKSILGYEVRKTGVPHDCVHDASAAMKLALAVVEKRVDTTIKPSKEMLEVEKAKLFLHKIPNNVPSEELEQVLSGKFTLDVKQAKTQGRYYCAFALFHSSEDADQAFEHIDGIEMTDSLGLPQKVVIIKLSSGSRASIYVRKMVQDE

[2] = target: T2, SDN1 ΔC (Arabidopsis thaliana) (UniProt A3KPE8); test: UV crosslinking (5-iodoU, 312 nm); conditions: recombinant protein, residues 2-302, protein details: His-SUMO tag removed
T2 sequence (looked up): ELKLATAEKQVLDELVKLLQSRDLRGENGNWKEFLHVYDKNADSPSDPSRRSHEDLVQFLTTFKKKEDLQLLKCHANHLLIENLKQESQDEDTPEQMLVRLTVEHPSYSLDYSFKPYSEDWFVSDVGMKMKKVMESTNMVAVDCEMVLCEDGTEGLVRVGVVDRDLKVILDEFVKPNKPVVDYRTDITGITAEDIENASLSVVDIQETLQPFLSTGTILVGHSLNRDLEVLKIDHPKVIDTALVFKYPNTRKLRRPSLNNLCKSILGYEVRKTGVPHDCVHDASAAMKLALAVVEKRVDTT

[3] = target: T1, SDN1 wild type (Arabidopsis thaliana); test: UV crosslinking (5-iodoU, 312 nm); conditions: no crosslink at this position only (duplex region); 5-iodoU at 15,16 of strand 2; recombinant protein; residues 2-409; protein details: His-SUMO tag removed; label: 5' 32P on target strand
[4] = target: T3, SDN1 RRM (CTD, EMSA) (Arabidopsis thaliana) (UniProt A3KPE8); test: EMSA; conditions: no Mg2+, EMSA: 50 mM Tris pH 8.0, 100 mM NaCl, 1 mM DTT, 2 nM RNA, on ice 30 min, 8% native PAGE in 0.5x TBE, recombinant protein, residues 298-409, protein details: His-SUMO tag removed, label: 5' 32P
T3 sequence (looked up): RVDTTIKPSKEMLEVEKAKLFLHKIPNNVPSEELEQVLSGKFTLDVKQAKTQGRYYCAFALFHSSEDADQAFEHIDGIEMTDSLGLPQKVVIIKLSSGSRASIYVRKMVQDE

[5] = target: T2, SDN1 ΔC (Arabidopsis thaliana); test: EMSA; conditions: no Mg2+, EMSA: 50 mM Tris pH 8.0, 100 mM NaCl, 1 mM DTT, 2 nM RNA, on ice 30 min, 8% native PAGE in 0.5x TBE, recombinant protein, residues 2-302, protein details: His-SUMO tag removed, label: 5' 32P

| Sequence | binding result ([1]; label: 5' 32P) | binding result ([1]; label: 5' 32P on miR166 strand) | further results |
| --- | --- | --- | --- |
| GAGAAAUCAC [10nt RNA] | binds more weakly | – | – |
| AAUCAC [6nt RNA] | binds more weakly | – | – |
| GAUUCCCUUGAAGCUUGGUCCGGAUUA [5'-IUU RNA] | – | – | binding result ([2]; no crosslink at 5' position, 5-iodoU at 3,4, label: 32P): no binding |
| UCGGACCAGGCUUCAUCCCCC / GAUUCCCUUGAAGCUUGGUCCGGAUUA [miR166:M-IUU] | – | – | binding result [3]: no binding; binding result ([2]; no crosslink at this position only (duplex region), 5-iodoU at 15,16 of strand 2, label: 5' 32P on target strand): no binding |
| UGCAGAGAGAAAUCAC [16nt RNA] | binds | – | – |
| UCGGACCAGGCUUCAUCCCCC / GAGGGGGAUGAAGCUUGGUCCGGAUUA [miR166:T0] | – | binds more weakly | – |
| UUCGCUUGCAGAGAGAAAUCAC [miR173 (22 nt RNA)] | – | – | binding result [4]: binds more weakly; binding result [5]: binds more weakly |
| UCGGACCAGGCUUCAUCCCCC / GAUUCCCUUGAAGCUUGGUCCGGAUUA [miR166:5'-IUU] | – | – | binding result ([2]; very weak, 5-iodoU at 3,4 of strand 2, label: 5' 32P on target strand): binds more weakly |
| UCGGACCAGGCUUCAUCCCCC / GAUUGGGAUGAAGCUUGGUCCGGAUUA [miR166:T2] | – | binds more weakly | – |
| UCGGACCAGGCUUCAUCCCCC / GAUUCCCCUGAAGCUUGGUCCGGAUUA [miR166:T6] | – | binds | – |

Reference: PMC6123492, “Structural and biochemical insights into small RNA 3′ end trimming by Arabidopsis SDN1”
